{"source": "patent US10821276B2", "about": "“System and method to locally deliver therapeutic agent to inner ear” (The Trustees of Columbia University in the City of New York, priority 2012, dated 2020)", "experiment": "Permeability of one pore estimated from diffusion coefficient and membrane thickness (P=D/h); 1% area perforation improvement", "conditions": "improvement ratio with 1% area perforation", "excerpt": "From Fick's first law, diffusion is described by J=−D∇ϕ (1) where J is diffusion flux in mol/m^2*s, D is the diffusion coefficient in m^2/s, and ϕ is the concentration in mol/l. Then from a one-dimensional simplification of the pore\n[formula] This can be further simplified with the gradient is uniform across the pore to obtain\n[formula] where x is the axis through the pore in m, cx is the concentration at both ends in mol/l, and h is the RWM thickness in m. Then from the definition of flux\n[formula] the permeability of the membrane is Flux=−PA(c1−c0) (5) where P=D/h is the permeability in m/s.\nThus the permeability of one pore can be estimated from the diffusion coefficient and the thickness of the membrane (10 μm, guinea pig).", "note": "At least one structure is not confirmed: it was looked up by name or label, or the drawing left a doubt.", "data": [{"smiles": "C[N+](C)(C)c1ccccc1", "note": "[TMPA]", "values": [{"measurement": "1% perforation improvement", "value": 5.30, "unit": "× 10"}]}]}
